## Results of single-concentration screens

Each number is a percent effect as filed. How 0% and 100% were set is not recorded. Most values in the screen are low, and negative values occur. Compounds were drawn at random from those tested, without regard to their results.

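Phenotypic screen: M. tuberculosis growth, cholesterol and DPPC medium, 4 days; the read-out is not stated. Concentration: 500 µM. The record gives no direction; compounds that gave an IC50 in retests scored well above the rest, so higher reads as more growth inhibition. Size under these conditions: about 18,000 compounds, about 900 of them at 50% or above in at least one test.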

| structure | Percent Effect |
|---|---|
| `O=S(=O)(CCO)CCc1c(F)cccc1Cl` | -10.12% |
| `Cc1ccc(C(C)NC(=O)Nc2nccn(C)c2=O)o1` (stereo unspecified) | 33.92% |
| `CC1CCC(NC(=O)Cn2cnc(C#N)n2)CC1` (stereo unspecified) | 48.11% |
| `CC1(C(=O)NCC(CO)Cc2cccs2)CCNCC1` (stereo unspecified) | 0.8887% |
| `NCCS(=O)(=O)N1CCCc2ccccc21` | 18.38% |
| `COc1ccccc1-c1cc(CO)[nH]n1` | 20.61% |
| `CCn1ccnc1CNc1ccn(CCCOC)n1` | 3.477% |
| `COc1ccc(NC(=O)CCOCC(C)C)c(OC)c1` | 18.6% |
| `NC(=O)CNc1cccc2ccccc12` | -1.309% |
| `CNC(=O)CCN(C)Cc1cc2n(n1)CCNC2` | -7.296% |
| `NCC1CNCCO1` (stereo unspecified) | -8.528% |
| `CCN(CCc1ccccc1)C(=O)CN1CSCC1=O` | 10.19% |
| `COC(=O)c1ccc2c(c1)CCCCC2=O` | -11.05% |
| `Cc1ccc(-c2cnnc(N)n2)cc1` | 15.93% |
| `NC(=O)c1cncnc1N` | 2.445% |
| `CC(C(=O)NC1(C#N)CCCCC1)N1CCC(O)CC1` (stereo unspecified) | -10.16% |
| `CN1CCCN(c2nc3ccccc3cc2CO)CC1` | 20.76% |
| `Cc1c[nH]c(CN2CCNC[C@H]2C)c(C)c1=O` | -2.527% |
| `Cc1ocnc1CNC(=O)CN(C)C(=O)c1cccs1` | -1.468% |
| `Cc1cccc2[nH]c(C(C)O)nc12` (stereo unspecified) | 2.674% |
| `NCC1CN(C(N)=O)CCO1` (stereo unspecified) | 7.59% |
| `Cc1ccccc1C(=O)NCCC(=O)NC1CC1` | -7.788% |
| `CCN(CC(N)=O)Cc1ccc(C)s1` | 20.4% |
| `CC(C)(C)CC(N)CN` (stereo unspecified) | 16.47% |
| `CC(Sc1nnc(C2CC2)n1C1CC1)C(N)=O` (stereo unspecified) | 12.34% |
| `CCOc1cccc(C(=O)N(C)C2CCN(C)CC2)c1` | -1.143% |
| `OCC1CCCN(Cc2ccccc2)C1` (stereo unspecified) | 4.405% |
| `CC(C)n1ccc(CC(=O)N2CCCC2)n1` | 15.36% |
| `Cc1occc1[S+]([O-])CC(=O)c1ccc[nH]1` (stereo unspecified) | 4.808% |
| `CCNC(=O)N(C)C(C)c1cnn(C)c1` (stereo unspecified) | -0.2529% |
| `COc1ccc(C(=O)N2C[C@H](C3CC3)[C@@H](N)C2)o1` | 24.92% |
| `CC(C)[C@@H](CO)NCC(=O)NC1(C#N)CCCCC1` | -13.79% |
| `CCOC(=O)CNS(=O)(=O)c1c(C)ccc2nsnc12` | -5.11% |
| `N[C@@H]1CCO[C@H]1c1ccc(=O)[nH]c1` | -5.463% |
| `N#Cc1ccncc1` | 12.05% |
| `CS(=O)(=O)NCc1ccnc(Oc2ccc(F)cc2)c1` | 28.2% |
| `CNC(=O)CSCCCOC(C)C` | 6.361% |
| `c1ccc(C2CNCCCO2)cc1` (stereo unspecified) | 44.53% |
| `Cc1cc(C2CCCN2CCS(C)(=O)=O)on1` (stereo unspecified) | 16.42% |
| `CCOc1cc(C(=O)OCCCn2cccn2)ccn1` | 3.146% |
| `CCOC(=O)N1CCN(C(=O)c2onc(C)c2Cl)CC1` | 36.56% |
| `CCCn1cc(CNC(=O)c2cnc(O)cn2)cn1` | 12.44% |
| `CN1CCCC1CCNC(=O)c1ccc(O)c(Cl)c1` (stereo unspecified) | 2.733% |
| `O=C(NCC1CCS(=O)(=O)C1)c1cc2ccccc2[nH]1` (stereo unspecified) | -6.287% |
| `COc1ccc2c(c1)[C@@H](N)CCO2` | 22.09% |
| `COc1ccc(Cl)cc1NC(=O)CN(C)CC(N)=O` | -9.528% |
| `Cc1ccc(NC(=O)CN2CCCCC2=O)c(C)c1O` | -3.221% |
| `CC(C)NC(=O)CSc1nc(C=Cc2cccs2)n[nH]1` | 88.49% |
| `CCOc1ccccc1C(=O)NC1CCN(C)CC1` | 11.57% |
| `CNC(=O)CCN(C)C(=O)C(C)Oc1ccccc1Br` (stereo unspecified) | -7.78% |
| `CC(C)(CNc1nc2ccccc2o1)C(N)=O` | 7.547% |
| `COC(=O)CN(CCn1cncn1)C1CCCC1` | -7.385% |
| `CC(Sc1nncn1CCc1cccs1)C(N)=O` (stereo unspecified) | -15.34% |
| `CNC(=O)c1ccc(S(=O)(=O)N2CCC=C(F)C2)cc1` | 13.22% |
| `Nc1nc2c(s1)Cc1ccccc1-2` | 12.73% |
| `Cc1ccc(C(=O)NCc2c[nH]nn2)c(F)c1` | 21.77% |
| `CO[C@H]1CNCC1NC(=O)Cc1cccc(Cl)c1` (stereo partly specified) | 18.88% |
| `COc1cc(OC)cc(C(=O)NCC(C)CN(C)C)c1` (stereo unspecified) | 5.274% |
| `N#CC1(NC(=O)CN2CCn3ccnc3C2)CCCC1` | 6.603% |
| `CN(C(=O)C(CN)c1ccccc1)c1cccc(F)c1` (stereo unspecified) | 0.07145% |
| `CN(CC(=O)Nc1ccn(C)n1)CC1(C)COC1` | -4.015% |
| `O=C(Nc1ccc(N2CCOCC2)cc1)C1CCCO1` (stereo unspecified) | -6.589% |
| `CC(C)NS(=O)(=O)c1cc(CO)ccc1F` | 15.96% |
| `Cc1csc(NC(=O)NC(CO)CC(C)C)n1` (stereo unspecified) | 66.9% |
| `NC(=O)c1ccc(C(=O)NCc2nccs2)nc1` | 21.09% |
| `CC(C)c1c(N)c(=O)n(-c2ccccc2)n1C` | 8.83% |
| `COC(=O)N1CCCC(NC2CCOCC2)C1` (stereo unspecified) | -5.04% |
| `CCc1nccn1CC(=O)NCCCc1csc(N)n1` | 2.662% |
| `Cc1cc(C)n(CC(=O)NCCc2ccc[nH]2)n1` | -4.827% |
| `CCCNC(=O)C(C)N(C)CCN1CCCC1=O` (stereo unspecified) | -0.1924% |
| `CN(C)C(CCN)c1ccccc1` (stereo unspecified) | 10.98% |

Repeated from the top, 9 entries:

{"structure": "O=S(=O)(CCO)CCc1c(F)cccc1Cl", "Percent Effect": -10.12}
{"structure": "Cc1ccc(C(C)NC(=O)Nc2nccn(C)c2=O)o1", "stereo": "stereo unspecified", "Percent Effect": 33.92}
{"structure": "CC1CCC(NC(=O)Cn2cnc(C#N)n2)CC1", "stereo": "stereo unspecified", "Percent Effect": 48.11}
{"structure": "CC1(C(=O)NCC(CO)Cc2cccs2)CCNCC1", "stereo": "stereo unspecified", "Percent Effect": 0.8887}
{"structure": "NCCS(=O)(=O)N1CCCc2ccccc21", "Percent Effect": 18.38}
{"structure": "COc1ccccc1-c1cc(CO)[nH]n1", "Percent Effect": 20.61}
{"structure": "CCn1ccnc1CNc1ccn(CCCOC)n1", "Percent Effect": 3.477}
{"structure": "COc1ccc(NC(=O)CCOCC(C)C)c(OC)c1", "Percent Effect": 18.6}
{"structure": "NC(=O)CNc1cccc2ccccc12", "Percent Effect": -1.309}

Data taken from ChEMBL document CHEMBL3988442, “University of Dundee, Small-Polar-MMV Screening Library” (2021).